From US20060121494A1
No constants are given. Whether binding was seen depends on the method and setting. In cells and extracts the contact can be indirect. Some binding calls cover weakened binding; strength is not graded here.

Assays:
[1] = molecular target: T1, hypophosphorylated Rb (retinoblastoma protein) (human) (UniProt P06400); assay: co-immunoprecipitation with anti-Id2 from TIG-3 lysates, Western blot
T1 sequence (hypophosphorylated form, looked up): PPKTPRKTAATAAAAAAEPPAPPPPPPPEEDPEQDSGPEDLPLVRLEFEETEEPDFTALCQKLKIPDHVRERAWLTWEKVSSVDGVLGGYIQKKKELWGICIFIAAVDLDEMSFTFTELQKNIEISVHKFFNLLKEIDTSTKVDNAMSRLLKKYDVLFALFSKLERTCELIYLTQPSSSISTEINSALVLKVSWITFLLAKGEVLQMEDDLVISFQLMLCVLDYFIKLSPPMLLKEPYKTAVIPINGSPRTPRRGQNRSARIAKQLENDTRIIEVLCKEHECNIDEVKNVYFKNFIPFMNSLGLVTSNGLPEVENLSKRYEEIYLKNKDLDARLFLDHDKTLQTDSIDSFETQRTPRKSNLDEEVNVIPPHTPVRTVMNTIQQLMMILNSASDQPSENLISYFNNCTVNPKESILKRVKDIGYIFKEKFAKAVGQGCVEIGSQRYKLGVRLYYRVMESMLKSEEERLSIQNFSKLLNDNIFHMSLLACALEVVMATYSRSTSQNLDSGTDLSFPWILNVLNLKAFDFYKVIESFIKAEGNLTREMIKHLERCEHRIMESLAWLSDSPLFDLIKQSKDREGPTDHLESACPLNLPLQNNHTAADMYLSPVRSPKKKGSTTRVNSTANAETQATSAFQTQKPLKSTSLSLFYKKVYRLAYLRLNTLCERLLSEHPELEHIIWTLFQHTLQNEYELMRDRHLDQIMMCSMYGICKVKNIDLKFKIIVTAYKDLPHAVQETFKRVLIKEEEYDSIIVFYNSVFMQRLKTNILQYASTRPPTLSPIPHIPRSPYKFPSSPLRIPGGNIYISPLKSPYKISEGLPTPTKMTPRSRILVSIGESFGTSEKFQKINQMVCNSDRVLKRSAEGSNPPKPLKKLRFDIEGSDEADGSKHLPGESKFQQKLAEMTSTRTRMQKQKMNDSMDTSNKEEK

[2] = molecular target: T1, hypophosphorylated Rb (retinoblastoma protein) (human); assay: co-immunoprecipitation (discussion of Example 1)
[3] = molecular target: T1, hypophosphorylated Rb (retinoblastoma protein) (human); assay: co-immunoprecipitation with anti-Id2 from neuroblastoma cell lysates, Western blot for Rb

Measured: binding

B1: Id2 protein (endogenous, human cells) (protein)
chain: MKAFSPVRSVRKNSLSDHSLGISRSKTPVDDPMSLLYNMNDCYSKLKELVPSIPQNKKVSKMEILQHLIDYILDLQIALDSHPTIVSLHHQRPGQNQRSRTTPLTTLNTDISILSLQASEFPSELMSNDSKALCG
binds: [1] | [2] | [3]
